From the supplement of paper PMC12823440, “Inhibitors supercharge kinase turnover through native proteolytic circuits” (Nature, 2025)
Structures can show the parent of a compound that is named as a salt. This is one part of the list. The calls rarely recur for the same compound in another form.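 Kinases were expressed as nanoluciferase fusions in K562 cells and luminescence was read every 4 h between 2 and 18 h as percent of control, DMSO set to 100% and a positive control to 0%. A time point counts as decreased when the signal drops significantly (2 sigma). The hit call is the authors' own, does not follow from the count of time points alone, and its rule is not shown.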

Protein sequences, listed by entry. Tags and fused reporters are not part of them. Lines headed by an entry give the natural chain unless they say otherwise; changes in a name come on top.
UniProt Q8IWU2: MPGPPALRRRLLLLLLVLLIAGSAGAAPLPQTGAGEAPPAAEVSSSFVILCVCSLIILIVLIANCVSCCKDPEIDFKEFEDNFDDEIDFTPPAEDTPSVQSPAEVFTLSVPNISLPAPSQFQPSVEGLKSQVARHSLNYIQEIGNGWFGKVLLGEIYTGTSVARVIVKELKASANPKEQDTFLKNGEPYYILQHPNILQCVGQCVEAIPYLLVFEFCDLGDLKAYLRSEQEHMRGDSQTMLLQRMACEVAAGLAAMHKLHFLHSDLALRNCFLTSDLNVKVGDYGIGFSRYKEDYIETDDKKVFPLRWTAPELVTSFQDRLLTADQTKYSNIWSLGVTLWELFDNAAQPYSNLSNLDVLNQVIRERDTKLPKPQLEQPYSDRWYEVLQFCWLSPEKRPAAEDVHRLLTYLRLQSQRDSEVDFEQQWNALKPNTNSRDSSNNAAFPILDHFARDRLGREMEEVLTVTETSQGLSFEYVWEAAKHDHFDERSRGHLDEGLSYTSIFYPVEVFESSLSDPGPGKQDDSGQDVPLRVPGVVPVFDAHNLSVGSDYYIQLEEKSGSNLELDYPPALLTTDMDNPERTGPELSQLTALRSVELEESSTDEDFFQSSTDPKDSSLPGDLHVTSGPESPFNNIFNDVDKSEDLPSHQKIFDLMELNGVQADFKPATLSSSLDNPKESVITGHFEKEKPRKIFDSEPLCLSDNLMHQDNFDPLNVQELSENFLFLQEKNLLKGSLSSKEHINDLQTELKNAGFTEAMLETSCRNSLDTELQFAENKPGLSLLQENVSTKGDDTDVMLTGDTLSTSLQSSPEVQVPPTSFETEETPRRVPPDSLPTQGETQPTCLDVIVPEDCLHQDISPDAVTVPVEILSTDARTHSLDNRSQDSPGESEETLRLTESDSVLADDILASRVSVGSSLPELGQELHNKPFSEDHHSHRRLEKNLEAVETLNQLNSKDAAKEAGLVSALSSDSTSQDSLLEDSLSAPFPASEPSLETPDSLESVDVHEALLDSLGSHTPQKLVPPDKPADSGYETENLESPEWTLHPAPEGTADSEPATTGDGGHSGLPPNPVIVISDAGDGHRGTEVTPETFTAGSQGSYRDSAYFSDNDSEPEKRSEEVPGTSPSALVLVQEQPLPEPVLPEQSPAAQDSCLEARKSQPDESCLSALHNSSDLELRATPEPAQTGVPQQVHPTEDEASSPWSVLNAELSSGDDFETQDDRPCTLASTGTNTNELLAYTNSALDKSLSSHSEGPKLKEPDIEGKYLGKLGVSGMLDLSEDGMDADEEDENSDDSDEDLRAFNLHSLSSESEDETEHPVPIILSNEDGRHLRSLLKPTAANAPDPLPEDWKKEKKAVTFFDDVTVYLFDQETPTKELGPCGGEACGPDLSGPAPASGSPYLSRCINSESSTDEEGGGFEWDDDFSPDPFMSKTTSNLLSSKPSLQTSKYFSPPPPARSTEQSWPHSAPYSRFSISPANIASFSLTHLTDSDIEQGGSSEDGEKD
UniProt P07948: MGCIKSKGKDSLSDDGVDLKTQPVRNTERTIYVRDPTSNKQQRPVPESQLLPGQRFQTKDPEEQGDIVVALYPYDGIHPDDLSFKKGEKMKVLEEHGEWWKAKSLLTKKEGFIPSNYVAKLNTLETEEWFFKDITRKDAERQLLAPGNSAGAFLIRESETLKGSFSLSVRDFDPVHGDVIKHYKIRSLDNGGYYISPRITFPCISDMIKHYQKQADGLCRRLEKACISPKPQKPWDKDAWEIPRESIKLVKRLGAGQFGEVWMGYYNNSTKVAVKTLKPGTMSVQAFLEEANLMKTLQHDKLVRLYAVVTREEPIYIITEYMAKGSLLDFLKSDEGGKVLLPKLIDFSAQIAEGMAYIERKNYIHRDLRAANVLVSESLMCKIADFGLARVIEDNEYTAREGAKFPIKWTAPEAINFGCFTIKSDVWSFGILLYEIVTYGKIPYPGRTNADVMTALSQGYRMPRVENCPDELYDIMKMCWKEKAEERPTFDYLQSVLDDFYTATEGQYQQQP
UniProt Q12851: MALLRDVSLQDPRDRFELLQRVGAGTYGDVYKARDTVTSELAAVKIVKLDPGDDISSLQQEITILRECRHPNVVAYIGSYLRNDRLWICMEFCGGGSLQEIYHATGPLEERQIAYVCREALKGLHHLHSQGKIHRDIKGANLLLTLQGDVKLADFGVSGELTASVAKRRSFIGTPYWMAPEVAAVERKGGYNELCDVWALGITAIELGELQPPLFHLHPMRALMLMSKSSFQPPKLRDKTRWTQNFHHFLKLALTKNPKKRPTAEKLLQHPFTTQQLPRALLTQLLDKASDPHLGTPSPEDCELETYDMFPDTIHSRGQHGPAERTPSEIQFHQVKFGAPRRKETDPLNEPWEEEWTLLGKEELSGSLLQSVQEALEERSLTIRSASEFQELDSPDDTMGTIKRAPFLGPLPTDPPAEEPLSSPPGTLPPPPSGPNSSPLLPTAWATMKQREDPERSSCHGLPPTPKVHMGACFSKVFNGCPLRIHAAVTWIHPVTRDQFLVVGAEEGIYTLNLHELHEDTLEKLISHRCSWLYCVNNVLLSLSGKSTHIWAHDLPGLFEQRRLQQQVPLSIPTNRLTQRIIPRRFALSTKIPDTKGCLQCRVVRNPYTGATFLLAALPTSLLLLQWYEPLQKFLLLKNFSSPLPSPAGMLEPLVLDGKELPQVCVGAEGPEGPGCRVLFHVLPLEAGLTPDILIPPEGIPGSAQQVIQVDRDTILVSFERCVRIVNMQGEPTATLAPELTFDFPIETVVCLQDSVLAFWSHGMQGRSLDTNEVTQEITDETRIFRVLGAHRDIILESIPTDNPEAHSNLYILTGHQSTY
UniProt P28482, whole entry: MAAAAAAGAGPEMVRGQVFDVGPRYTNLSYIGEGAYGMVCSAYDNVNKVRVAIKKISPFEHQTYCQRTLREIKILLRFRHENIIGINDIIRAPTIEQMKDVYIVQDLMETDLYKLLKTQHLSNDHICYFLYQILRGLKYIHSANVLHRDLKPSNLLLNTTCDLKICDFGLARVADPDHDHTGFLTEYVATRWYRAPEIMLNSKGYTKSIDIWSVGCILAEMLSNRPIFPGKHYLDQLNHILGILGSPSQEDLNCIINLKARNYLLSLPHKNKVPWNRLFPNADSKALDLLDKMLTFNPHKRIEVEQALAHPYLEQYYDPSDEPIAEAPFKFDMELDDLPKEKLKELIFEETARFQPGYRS
UniProt P31152, whole entry: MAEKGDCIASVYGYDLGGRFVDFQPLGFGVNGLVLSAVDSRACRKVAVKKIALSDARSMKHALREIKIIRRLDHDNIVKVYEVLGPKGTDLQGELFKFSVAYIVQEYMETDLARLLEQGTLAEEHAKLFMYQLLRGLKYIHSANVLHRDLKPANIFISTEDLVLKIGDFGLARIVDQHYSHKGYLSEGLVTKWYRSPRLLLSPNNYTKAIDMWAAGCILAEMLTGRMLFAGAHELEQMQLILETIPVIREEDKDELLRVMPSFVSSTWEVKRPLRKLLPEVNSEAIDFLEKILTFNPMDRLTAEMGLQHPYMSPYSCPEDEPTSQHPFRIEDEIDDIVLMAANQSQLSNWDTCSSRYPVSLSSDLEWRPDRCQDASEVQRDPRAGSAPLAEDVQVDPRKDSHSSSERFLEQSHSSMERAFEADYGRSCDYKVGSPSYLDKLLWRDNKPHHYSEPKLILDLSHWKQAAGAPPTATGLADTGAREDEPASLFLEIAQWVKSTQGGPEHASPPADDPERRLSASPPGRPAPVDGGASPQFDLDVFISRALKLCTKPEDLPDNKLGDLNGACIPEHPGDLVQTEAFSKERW
UniProt P49137, whole entry, looked up: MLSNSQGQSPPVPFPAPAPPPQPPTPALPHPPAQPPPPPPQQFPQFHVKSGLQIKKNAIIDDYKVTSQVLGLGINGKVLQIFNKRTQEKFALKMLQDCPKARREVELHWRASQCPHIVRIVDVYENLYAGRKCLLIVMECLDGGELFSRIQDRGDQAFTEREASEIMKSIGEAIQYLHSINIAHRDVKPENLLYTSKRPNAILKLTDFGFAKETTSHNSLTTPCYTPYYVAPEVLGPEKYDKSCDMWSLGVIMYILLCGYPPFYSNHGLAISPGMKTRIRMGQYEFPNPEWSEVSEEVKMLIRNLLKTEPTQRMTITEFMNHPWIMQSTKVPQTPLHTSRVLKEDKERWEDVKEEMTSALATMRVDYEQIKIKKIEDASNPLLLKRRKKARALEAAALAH
UniProt Q9BUB5: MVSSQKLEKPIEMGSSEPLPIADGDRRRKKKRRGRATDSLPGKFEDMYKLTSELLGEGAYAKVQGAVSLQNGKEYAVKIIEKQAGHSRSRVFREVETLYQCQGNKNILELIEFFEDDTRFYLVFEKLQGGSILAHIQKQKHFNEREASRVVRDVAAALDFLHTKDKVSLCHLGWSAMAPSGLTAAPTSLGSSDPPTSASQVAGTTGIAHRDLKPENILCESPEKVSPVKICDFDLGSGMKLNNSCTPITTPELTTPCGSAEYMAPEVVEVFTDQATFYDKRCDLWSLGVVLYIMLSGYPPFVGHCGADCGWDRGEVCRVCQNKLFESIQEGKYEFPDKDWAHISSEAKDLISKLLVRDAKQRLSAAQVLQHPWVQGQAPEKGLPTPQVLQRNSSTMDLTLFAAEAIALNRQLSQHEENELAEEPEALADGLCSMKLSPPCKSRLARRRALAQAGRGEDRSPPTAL
UniProt Q16620, whole entry, looked up: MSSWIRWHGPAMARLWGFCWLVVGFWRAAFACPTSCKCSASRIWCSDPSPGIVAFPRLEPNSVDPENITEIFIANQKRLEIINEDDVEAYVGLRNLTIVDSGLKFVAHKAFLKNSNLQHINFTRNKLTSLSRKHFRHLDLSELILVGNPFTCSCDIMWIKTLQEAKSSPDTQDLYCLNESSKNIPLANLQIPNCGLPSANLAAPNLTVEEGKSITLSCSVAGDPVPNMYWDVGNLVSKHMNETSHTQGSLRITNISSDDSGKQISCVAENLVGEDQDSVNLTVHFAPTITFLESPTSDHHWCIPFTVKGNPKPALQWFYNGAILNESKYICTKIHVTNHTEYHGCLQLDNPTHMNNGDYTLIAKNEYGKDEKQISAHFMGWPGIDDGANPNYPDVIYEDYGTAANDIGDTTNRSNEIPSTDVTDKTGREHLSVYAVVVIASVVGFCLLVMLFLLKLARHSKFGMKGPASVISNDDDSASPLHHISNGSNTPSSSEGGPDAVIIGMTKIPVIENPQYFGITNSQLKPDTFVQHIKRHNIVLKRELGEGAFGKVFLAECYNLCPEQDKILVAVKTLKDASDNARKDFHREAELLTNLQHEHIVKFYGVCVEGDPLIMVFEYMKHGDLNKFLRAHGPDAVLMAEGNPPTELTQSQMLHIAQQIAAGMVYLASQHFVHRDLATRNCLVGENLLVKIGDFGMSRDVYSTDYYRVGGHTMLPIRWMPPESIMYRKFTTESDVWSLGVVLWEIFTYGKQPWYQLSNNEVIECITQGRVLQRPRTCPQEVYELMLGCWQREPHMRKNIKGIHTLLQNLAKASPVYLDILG

Tests used:
Assay in all cases: number of time points (of 5) at which kinase-Nluc abundance scored as decreased, DMSO-normalised (count); higher = more persistent destabilization
Settings in all cases: K562; 2-18 h
[1] = biological target: LMTK2 (UniProt Q8IWU2)
[2] = biological target: LYN (UniProt P07948)
[3] = biological target: MAP2K1 (UniProt Q02750)
[4] = biological target: MAP2K2 (UniProt P36507)
[5] = biological target: MAP4K2 (UniProt Q12851)
[6] = biological target: MAPK1 (UniProt P28482)
[7] = biological target: MAPK4 (UniProt P31152)
[8] = biological target: MAPKAPK2 (UniProt P49137)
[9] = biological target: MKNK1 (UniProt Q9BUB5)
[10] = biological target: NTRK2 (UniProt Q16620)

Measured: number of time points

CCN(CC)CCCCNc1ncc2cc(-c3cc(OC)cc(OC)c3)c(NC(=O)NC(C)(C)C)nc2n1 (10 µM)
0: [1] | [2] | [3] | [4] | [5] | [6] | [7] | [8] | [9] | [10]

CC(C)C(=O)Nc1ncc(-c2cc(C(F)F)nn2-c2c(Cl)cccc2Cl)s1 (10 µM)
0: [1] | [2] | [3] | [4] | [5] | [6] | [7] | [8] | [9] | [10]

CN1CCN(C2CCN(C(=O)Nc3cc(Oc4ccc(NC(=O)C5(C(=O)Nc6ccc(F)cc6)CC5)c(F)c4)ccn3)CC2)CC1 [Golvatinib] (2.5 µM)
0: [1] | [2] | [3] | [4] | [5] | [6] | [7] | [8] | [9]

Cn1c(=O)n(-c2ccc(C(C)(C)C#N)cc2)c2c3cc(-c4cnc5ccccc5c4)ccc3ncc21 [Dactolisib (Tosylate)] (10 µM)
3: [1]
0: [3] | [4] | [5] | [6] | [7] | [8] | [10]
1: [2]
4: [9]

Cc1nc(N)sc1-c1ccnc(Nc2ccc(N3CCOCC3)cc2)n1 (10 µM)
0: [1] | [2] | [3] | [4] | [5] | [6] | [7] | [8] | [9] | [10]

Cc1nc(-c2cnc(NC(C)C)n(C)c2=O)ccc1Oc1ccnc(-c2cnn(C)c2)c1 (2.5 µM)
0: [1] | [2] | [3] | [4] | [5] | [6] | [7] | [8] | [10]
1: [9]

C=CC(=O)Nc1cccc(Nc2nc(Nc3ccc(OCCOC)cc3)ncc2F)c1 [Spebrutinib] (10 µM)
0: [1] | [2] | [3] | [4] | [5] | [6] | [7] | [8] | [9] | [10]

CCN1C(=O)N(c2c(F)c(OC)cc(OC)c2F)Cc2cnc3[nH]c(CN4CCOCC4)cc3c21 [Pemigatinib] (10 µM)
0: [1] | [2] | [3] | [4] | [5] | [6] | [7] | [8] | [9] | [10]

COc1cc2ncn(-c3cc(OCc4ccccc4C(F)(F)F)c(C(N)=O)s3)c2cc1OC (10 µM)
0: [1] | [2] | [3] | [4] | [5] | [6] | [7] | [8] | [9] | [10]

COc1cc(OC)cc(N(CCNC(C)C)c2ccc3ncc(-c4cnn(C)c4)nc3c2)c1 [Erdafitinib] (2.5 µM)
0: [1] | [2] | [3] | [4] | [5] | [6] | [7] | [8] | [9] | [10]

CNC(=O)c1cc(Oc2ccc(NC(=O)Nc3cc(C(C)(C)C)nn3-c3ccc4ncccc4c3)c(F)c2)ccn1 [Rebastinib] (2.5 µM)
4: [1]
0: [2] | [3] | [4] | [5] | [6] | [7] | [8] | [9]

c1cc(OCCN2CCCCC2)cc(-c2n[nH]c3ccc(-c4nnc[nH]4)cc23)c1 [CC-401 (hydrochloride)] (10 µM)
0: [1] | [2] | [3] | [4] | [5] | [6] | [7] | [8] | [9]

O=c1cc(-c2ccccc2)oc2c(O)c(O)ccc12 [7,8-Dihydroxyflavone] (10 µM)
0: [1] | [2] | [3] | [4] | [5] | [6] | [7] | [8] | [9] | [10]

Gathered by group, the entries above containing a tert-butyl group
CCN(CC)CCCCNc1ncc2cc(-c3cc(OC)cc(OC)c3)c(NC(=O)NC(C)(C)C)nc2n1 (10 µM)
0: [1] | [2] | [3] | [4] | [5] | [6] | [7] | [8] | [9] | [10]

CNC(=O)c1cc(Oc2ccc(NC(=O)Nc3cc(C(C)(C)C)nn3-c3ccc4ncccc4c3)c(F)c2)ccn1 [Rebastinib] (2.5 µM)
4: [1]
0: [2] | [3] | [4] | [5] | [6] | [7] | [8] | [9]

(more compounds)

Cc1ccc(NC(=O)c2cccc(N(C)C)c2)cc1NC(=O)c1ccc(O)cc1 (10 µM)
0: [1] | [2] | [3] | [4] | [5] | [6] | [7] | [8] | [9] | [10]

COc1cc2ncnc(Nc3cccc(O)c3)c2cc1OC (10 µM)
0: [1] | [2] | [3] | [4] | [5] | [6] | [7] | [8]
4: [9]
1: [10]

CC(C)n1cnc2c(NCc3cccc(C(F)(F)F)c3)ncnc21 [Longdaysin] (10 µM)
0: [1] | [2] | [3] | [4] | [5] | [6] | [7] | [8] | [9] | [10]

C[C@H](NC(=O)/C(C#N)=C/c1cccc(Br)n1)c1ccccc1 (2.5 µM)
0: [2] | [3] | [4] | [5] | [6] | [7] | [8] | [9] | [10]
1: [1]

CCN(CCO)CCCOc1ccc2c(Nc3cc(CC(=O)Nc4cccc(F)c4)[nH]n3)ncnc2c1 [Barasertib-HQPA] (10 µM)
0: [1] | [2] | [3] | [4] | [5] | [6] | [7] | [8] | [9] | [10]

CCN(CCCOc1ccc2c(Nc3cc(CC(=O)Nc4cccc(F)c4)[nH]n3)ncnc2c1)CCOP(=O)(O)O [Barasertib] (10 µM)
0: [1] | [2] | [3] | [4] | [5] | [6] | [7] | [8] | [9] | [10]

CNC(=O)c1cccc2cc(Oc3ccnc4cc(OCC5(N)CC5)c(OC)cc34)ccc12 [Lucitanib] (10 µM)
0: [1] | [2] | [3] | [4] | [5] | [6] | [7] | [8] | [9] | [10]

CC#CC(=O)N[C@H]1CCCN(c2c(F)cc(C(N)=O)c3[nH]c(C)c(C)c23)C1 [Branebrutinib] (10 µM)
0: [1] | [2] | [3] | [4] | [5] | [6] | [7] | [8] | [9] | [10]

O=C1Nc2ccccc2/C1=C/c1ccc(F)cc1 (10 µM)
0: [1] | [2] | [3] | [4] | [5] | [6] | [7] | [8] | [9] | [10]

CCN1CCN(Cc2ccc(C(=O)Nc3ccc(C)c(Oc4ccc5c(c4)CC(=O)N5)c3)cc2C(F)(F)F)CC1 (2.5 µM)
1: [7] | [10]
2: [9]
0: [1] | [2] | [3] | [4] | [5] | [6] | [8]

Oc1cc(O)cc(/C=C/c2ccc(O)c(O)c2)c1 [Piceatannol] (10 µM)
2: [8]
3: [1] | [10]
0: [2] | [3] | [4] | [5] | [6] | [7] | [9]

COCCNCCc1cccc(Nc2ncc3c(n2)-c2ccccc2[C@H](c2ccccc2F)C3)c1 [Derazantinib] (2.5 µM)
0: [1] | [2] | [3] | [4] | [5] | [6] | [7] | [8] | [9] | [10]

COc1cc(OC)cc(-c2cc3cnc(N)nc3nc2NC(=O)NC(C)(C)C)c1 (10 µM)
0: [1] | [2] | [3] | [4] | [5] | [6] | [7] | [8] | [9] | [10]

CNC(=O)c1ccccc1Nc1nc(Nc2ccc(N3CCOCC3)cc2OC)ncc1Cl (2.5 µM)
0: [1] | [2] | [3] | [4] | [5] | [6] | [7] | [8] | [9] | [10]

CC(C)Oc1cc(Nc2nc(N[C@@H](C)c3ccc(F)cn3)ncc2Cl)n[nH]1 (10 µM)
0: [1] | [2] | [3] | [4] | [5] | [6] | [7] | [8] | [9] | [10]

CC(C)(C)c1cc(NC(=O)Nc2ccc(-c3cn4c(n3)sc3cc(OCCN5CCOCC5)ccc34)cc2)no1 [Quizartinib] (10 µM)
0: [1] | [3] | [4] | [6] | [8] | [9]
2: [2] | [5] | [7]

CCCCOc1c(C(=O)c2c(F)cc(C)cc2F)c[nH]c2nncc1-2 (10 µM)
0: [1] | [2] | [3] | [4] | [5] | [6] | [7] | [8] | [9] | [10]

COc1cc2c(Nc3ccc(Br)cc3F)ncnc2cc1OCCn1ccnn1 (10 µM)
0: [1] | [2] | [3] | [4] | [5] | [6] | [7] | [8] | [9] | [10]

CC(C)=CC/C=C(\C)[C@H]1CC[C@]2(C)[C@@H]1[C@H](O)C[C@@H]1[C@@]3(C)CC[C@H](O[C@@H]4O[C@H](CO)[C@@H](O)[C@H](O)[C@H]4O[C@@H]4O[C@H](CO)[C@@H](O)[C@H](O)[C@H]4O)C(C)(C)[C@@H]3CC[C@]12C [Ginsenoside Rg5] (10 µM)
0: [1] | [2] | [3] | [4] | [5] | [6] | [7] | [8] | [9] | [10]

CCCCNc1ncc(-c2ccc(CN3CCOCC3)cn2)c(NC2CCC(O)CC2)n1 (stereo unspecified) (10 µM)
0: [1] | [2] | [3] | [4] | [5] | [6] | [7] | [8] | [9] | [10]
